Source: PMC12848046

Columns and labels:
Fg-HAUSP-ΔMATH (human) = assay: co-IP; 293T cells co-transfected with two tagged constructs (Fg, Myc), lysed 48 h after transfection, IP and immunoblot by the tags; cells of Fig. 1 treated with 25 uM MG132 for 4 h before harvest
Fg-SPOP-ΔMATH (human) = assay: as above

B1: Myc-LZTS2 (protein, UniProt Q9BRK4 1-669)
chain: MAIVQTLPVPLEPAPEAATAPQAPVMGSVSSLISGRPCPGGPAPPRHHGPPGPTFFRQQDGLLRGGYEAQEPLCPAVPPRKAVPVTSFTYINEDFRTESPPSPSSDVEDAREQRAHNAHLRGPPPKLIPVSGKLEKNMEKILIRPTAFKPVLPKPRGAPSLPSFMGPRATGLSGSQGSLTQLFGGPASSSSSSSSSSAADKPLAFSGWASGCPSGTLSDSGRNSLSSLPTYSTGGAEPTTSSPGGHLPSHGSGRGALPGPARGVPTGPSHSDSGRSSSSKSTGSLGGRVAGGLLGSGTRASPDSSSCGERSPPPPPPPPSDEALLHCVLEGKLRDREAELQQLRDSLDENEATMCQAYEERQRHWQREREALREDCAAQAQRAQRAQQLLQLQVFQLQQEKRQLQDDFAQLLQEREQLERRCATLEREQRELGPRLEETKWEVCQKSGEISLLKQQLKESQAELVQKGSELVALRVALREARATLRVSEGRARGLQEAARARELELEACSQELQRHRQEAEQLREKAGQLDAEAAGLREPPVPPATADPFLLAESDEAKVQRAAAGVGGSLRAQVERLRVELQRERRRGEEQRDSFEGERLAWQAEKEQVIRYQKQLQHNYIQMYRRNRQLEQELQQLSLELEARELADLGLAEQAPCICLEEITATEI
binding (Fg-HAUSP-ΔMATH (human)): no binding | binding (Fg-SPOP-ΔMATH (human)): no binding

No constants are given. Whether binding was seen depends on the method and setting. Binding seen in cells or lysates may run through a third protein. Sequences can lack the tags named with a protein.
